Laboratory results reported in the supplement of paper PMC12819154, “High-throughput peptide-centric local stability assay extends protein–ligand identification to membrane proteins, tissues and bacteria” (Nature Structural & Molecular Biology, 2025).
Some of the results follow. Most values lie at the level of the controls, where differences are scatter.

Sequences of proteins named here, by UniProt entry; tags and fusion partners are left off. A change or cut given only in a name is not applied to a line headed by its entry.
UniProt P52086: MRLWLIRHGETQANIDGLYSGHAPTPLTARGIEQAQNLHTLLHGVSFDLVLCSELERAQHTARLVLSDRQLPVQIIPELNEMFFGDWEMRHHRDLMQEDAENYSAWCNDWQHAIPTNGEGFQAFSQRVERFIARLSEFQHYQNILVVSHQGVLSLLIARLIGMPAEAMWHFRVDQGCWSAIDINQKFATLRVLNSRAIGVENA
UniProt P52061: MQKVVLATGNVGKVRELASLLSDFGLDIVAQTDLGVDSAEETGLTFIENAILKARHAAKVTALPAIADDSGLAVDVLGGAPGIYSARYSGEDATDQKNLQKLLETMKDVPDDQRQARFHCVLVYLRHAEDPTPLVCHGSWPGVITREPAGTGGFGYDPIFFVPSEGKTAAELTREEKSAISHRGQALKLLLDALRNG
UniProt P64610: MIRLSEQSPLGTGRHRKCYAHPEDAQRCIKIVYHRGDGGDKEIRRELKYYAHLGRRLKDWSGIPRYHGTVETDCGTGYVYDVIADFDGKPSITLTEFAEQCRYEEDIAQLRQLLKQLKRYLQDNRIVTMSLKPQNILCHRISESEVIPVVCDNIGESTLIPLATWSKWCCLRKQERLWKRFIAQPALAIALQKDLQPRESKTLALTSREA
UniProt P52614: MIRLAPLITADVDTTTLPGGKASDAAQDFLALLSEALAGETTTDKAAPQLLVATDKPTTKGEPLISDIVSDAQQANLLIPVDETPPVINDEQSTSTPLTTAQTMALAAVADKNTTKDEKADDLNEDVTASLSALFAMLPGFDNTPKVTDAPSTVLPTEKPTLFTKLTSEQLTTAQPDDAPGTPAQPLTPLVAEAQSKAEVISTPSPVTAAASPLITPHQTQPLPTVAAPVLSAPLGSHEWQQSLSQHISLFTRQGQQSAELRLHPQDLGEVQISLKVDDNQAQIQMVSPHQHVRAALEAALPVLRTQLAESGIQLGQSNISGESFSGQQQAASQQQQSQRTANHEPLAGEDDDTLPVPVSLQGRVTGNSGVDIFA
UniProt P52097: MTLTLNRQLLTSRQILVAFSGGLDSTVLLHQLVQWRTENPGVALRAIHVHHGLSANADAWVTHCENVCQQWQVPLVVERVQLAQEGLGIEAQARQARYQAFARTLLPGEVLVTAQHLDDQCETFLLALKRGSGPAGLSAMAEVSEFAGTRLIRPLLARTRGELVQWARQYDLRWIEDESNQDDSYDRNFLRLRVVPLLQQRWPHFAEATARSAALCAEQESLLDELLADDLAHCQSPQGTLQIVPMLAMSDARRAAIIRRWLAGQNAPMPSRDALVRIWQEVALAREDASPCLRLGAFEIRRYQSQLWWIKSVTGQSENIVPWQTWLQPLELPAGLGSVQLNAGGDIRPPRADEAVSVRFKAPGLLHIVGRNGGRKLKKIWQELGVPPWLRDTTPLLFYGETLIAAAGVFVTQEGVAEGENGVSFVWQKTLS
UniProt P54746: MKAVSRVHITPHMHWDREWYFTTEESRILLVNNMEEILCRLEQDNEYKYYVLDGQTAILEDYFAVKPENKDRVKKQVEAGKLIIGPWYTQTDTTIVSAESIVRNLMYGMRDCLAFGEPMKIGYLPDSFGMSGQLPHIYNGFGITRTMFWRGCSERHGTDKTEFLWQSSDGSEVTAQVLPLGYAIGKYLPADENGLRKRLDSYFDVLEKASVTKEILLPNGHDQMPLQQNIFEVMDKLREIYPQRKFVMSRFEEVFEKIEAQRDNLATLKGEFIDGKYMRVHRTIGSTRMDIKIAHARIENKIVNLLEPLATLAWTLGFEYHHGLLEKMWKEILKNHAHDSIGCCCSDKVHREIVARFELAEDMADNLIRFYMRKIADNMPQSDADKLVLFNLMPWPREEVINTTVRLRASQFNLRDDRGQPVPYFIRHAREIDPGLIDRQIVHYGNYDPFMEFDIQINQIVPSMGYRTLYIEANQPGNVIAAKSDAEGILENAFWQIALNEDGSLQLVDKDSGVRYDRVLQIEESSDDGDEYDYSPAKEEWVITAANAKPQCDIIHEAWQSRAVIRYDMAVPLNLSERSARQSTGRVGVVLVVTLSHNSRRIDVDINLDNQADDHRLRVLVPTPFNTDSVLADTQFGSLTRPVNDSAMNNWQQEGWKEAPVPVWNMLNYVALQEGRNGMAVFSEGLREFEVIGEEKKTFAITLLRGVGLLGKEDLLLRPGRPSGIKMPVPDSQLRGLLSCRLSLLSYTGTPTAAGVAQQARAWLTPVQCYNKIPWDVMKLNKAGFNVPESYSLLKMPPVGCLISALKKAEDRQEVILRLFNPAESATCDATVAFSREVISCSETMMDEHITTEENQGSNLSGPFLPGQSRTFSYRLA
UniProt P75823: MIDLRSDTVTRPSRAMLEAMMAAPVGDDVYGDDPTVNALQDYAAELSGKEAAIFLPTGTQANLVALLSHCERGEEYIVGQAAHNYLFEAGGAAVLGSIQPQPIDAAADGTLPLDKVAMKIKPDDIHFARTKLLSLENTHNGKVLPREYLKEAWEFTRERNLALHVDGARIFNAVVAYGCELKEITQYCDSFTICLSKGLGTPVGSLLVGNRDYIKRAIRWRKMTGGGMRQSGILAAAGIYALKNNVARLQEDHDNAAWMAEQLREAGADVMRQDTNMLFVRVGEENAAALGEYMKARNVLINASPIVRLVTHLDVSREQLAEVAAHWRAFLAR
UniProt P75713: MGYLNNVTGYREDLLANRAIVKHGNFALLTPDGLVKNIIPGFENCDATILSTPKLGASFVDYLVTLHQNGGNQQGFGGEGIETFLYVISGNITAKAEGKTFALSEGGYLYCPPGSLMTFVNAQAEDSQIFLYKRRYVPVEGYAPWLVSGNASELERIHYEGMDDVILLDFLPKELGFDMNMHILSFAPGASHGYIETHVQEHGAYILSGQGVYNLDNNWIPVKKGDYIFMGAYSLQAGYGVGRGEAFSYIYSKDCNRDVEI
UniProt P51024: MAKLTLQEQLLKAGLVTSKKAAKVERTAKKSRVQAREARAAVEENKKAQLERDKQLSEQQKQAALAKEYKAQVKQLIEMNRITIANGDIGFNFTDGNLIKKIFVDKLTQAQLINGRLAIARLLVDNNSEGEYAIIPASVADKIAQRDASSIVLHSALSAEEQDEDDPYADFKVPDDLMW
UniProt P71298: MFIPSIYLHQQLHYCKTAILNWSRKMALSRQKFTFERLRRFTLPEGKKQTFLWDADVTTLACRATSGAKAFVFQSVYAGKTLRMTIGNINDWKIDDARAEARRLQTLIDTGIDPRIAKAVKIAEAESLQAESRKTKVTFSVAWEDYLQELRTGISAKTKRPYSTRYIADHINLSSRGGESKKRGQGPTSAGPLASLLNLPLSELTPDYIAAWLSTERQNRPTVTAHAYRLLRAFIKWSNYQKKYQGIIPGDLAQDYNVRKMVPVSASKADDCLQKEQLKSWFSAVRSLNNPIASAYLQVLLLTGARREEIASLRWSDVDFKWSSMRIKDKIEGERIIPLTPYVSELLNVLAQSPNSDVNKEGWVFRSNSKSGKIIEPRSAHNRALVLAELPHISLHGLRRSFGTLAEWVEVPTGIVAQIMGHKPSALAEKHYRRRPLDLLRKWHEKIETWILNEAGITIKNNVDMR
UniProt P46853: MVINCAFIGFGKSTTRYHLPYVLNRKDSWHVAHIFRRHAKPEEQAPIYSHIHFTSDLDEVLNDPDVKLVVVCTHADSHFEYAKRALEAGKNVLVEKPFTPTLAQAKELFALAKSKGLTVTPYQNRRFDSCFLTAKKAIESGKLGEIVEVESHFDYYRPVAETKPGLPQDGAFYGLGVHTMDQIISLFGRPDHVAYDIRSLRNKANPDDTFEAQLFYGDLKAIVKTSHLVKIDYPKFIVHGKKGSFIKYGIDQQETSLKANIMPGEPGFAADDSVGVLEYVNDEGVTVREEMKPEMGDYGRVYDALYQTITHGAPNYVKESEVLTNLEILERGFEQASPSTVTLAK

What follows are targets tested with CC1(C)S[C@@H]2[C@H](NC(=O)[C@H](N)c3ccccc3)C(=O)N2[C@H]1C(=O)O [ampicillin] (assay: log2 fold change of tryptic peptide abundance, ligand vs vehicle (limited proteolysis) (log2 ratio); higher = more trypsin-susceptible (destabilized)). Settings: ligand concentration: 10 uM; sample: E. coli crude lysate.

| Target | log2 fold change |
| --- | --- |
| UniProt P52086 (peptide sequence: AIGVENA, peptide start residue: 197) | 0.156 |
| UniProt P52061 (peptide sequence: FHCVLVYLR, peptide start residue: 118) | -0.216 |
| UniProt P64610 (peptide sequence: GDGGDKEIR, peptide start residue: 36) | 0.252 |
| UniProt P52614 (peptide sequence: AAPQLLVATDKPTTK, peptide start residue: 46) | -0.13 |
| UniProt P52097 (peptide sequence: EDASPCLR, peptide start residue: 287) | -0.285 |
| UniProt P54746 (peptide sequence: GVGLLGK, peptide start residue: 706) | -0.0929 |
| UniProt P75823 (peptide sequence: EQLAEVAAHWR, peptide start residue: 318) | 0.274 |
| UniProt P75713 (peptide sequence: HGNFALLTPDGLVK, peptide start residue: 23) | -0.455 |
| UniProt P51024 (peptide sequence: KIFVDKLTQAQLINGR, peptide start residue: 101) | 0.144 |
| UniProt P71298 (peptide sequence: KYQGIIPGDLAQDYNVR, peptide start residue: 243) | 0.265 |
| UniProt P46853 (peptide sequence: GLTVTPYQNR, peptide start residue: 116) | -0.38 |
